Measured values taken from the supplement of paper PMC10849652.
The list shows a part of the results.

Chains of the proteins cited; added tags and fusions are not shown. Lines headed by an entry give the natural chain unless they say otherwise; changes in a name come on top.
UniProt Q6AI08: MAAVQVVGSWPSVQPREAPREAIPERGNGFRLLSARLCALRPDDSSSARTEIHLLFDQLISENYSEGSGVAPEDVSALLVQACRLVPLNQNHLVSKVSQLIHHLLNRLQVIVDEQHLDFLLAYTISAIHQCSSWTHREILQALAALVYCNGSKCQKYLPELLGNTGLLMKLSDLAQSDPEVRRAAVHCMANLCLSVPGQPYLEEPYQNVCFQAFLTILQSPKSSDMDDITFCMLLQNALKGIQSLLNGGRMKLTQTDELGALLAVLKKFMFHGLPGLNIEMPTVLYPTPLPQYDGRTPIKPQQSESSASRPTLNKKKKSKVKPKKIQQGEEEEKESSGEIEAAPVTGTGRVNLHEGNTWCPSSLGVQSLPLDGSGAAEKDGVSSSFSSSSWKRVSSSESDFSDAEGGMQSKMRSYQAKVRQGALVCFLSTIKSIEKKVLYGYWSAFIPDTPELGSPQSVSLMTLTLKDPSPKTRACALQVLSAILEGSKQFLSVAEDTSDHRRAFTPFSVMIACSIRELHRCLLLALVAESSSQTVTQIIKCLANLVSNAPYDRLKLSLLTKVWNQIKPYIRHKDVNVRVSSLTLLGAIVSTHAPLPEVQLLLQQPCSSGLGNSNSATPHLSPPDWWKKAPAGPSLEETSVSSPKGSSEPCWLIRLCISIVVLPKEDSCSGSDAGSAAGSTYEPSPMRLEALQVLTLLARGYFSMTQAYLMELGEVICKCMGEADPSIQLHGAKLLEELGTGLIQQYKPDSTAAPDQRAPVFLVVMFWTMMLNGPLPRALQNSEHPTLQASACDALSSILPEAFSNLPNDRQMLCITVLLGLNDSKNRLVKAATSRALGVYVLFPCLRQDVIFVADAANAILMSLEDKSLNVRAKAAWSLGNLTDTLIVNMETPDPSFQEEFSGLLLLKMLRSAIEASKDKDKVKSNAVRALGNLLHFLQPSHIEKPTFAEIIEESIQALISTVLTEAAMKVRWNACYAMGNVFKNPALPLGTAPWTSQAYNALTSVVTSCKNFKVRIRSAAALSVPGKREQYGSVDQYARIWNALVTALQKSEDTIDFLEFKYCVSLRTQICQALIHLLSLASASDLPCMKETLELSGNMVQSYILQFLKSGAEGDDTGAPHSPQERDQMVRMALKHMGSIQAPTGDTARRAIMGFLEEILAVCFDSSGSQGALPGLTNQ
UniProt Q6PII5: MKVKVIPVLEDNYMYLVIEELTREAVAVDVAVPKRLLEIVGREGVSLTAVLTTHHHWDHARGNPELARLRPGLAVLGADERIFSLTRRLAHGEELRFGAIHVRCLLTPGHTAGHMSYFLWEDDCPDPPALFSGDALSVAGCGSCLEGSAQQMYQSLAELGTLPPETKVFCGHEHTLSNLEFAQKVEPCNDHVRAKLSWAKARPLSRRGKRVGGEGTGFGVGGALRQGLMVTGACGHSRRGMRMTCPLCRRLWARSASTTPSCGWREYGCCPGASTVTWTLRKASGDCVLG
UniProt Q9BQS7: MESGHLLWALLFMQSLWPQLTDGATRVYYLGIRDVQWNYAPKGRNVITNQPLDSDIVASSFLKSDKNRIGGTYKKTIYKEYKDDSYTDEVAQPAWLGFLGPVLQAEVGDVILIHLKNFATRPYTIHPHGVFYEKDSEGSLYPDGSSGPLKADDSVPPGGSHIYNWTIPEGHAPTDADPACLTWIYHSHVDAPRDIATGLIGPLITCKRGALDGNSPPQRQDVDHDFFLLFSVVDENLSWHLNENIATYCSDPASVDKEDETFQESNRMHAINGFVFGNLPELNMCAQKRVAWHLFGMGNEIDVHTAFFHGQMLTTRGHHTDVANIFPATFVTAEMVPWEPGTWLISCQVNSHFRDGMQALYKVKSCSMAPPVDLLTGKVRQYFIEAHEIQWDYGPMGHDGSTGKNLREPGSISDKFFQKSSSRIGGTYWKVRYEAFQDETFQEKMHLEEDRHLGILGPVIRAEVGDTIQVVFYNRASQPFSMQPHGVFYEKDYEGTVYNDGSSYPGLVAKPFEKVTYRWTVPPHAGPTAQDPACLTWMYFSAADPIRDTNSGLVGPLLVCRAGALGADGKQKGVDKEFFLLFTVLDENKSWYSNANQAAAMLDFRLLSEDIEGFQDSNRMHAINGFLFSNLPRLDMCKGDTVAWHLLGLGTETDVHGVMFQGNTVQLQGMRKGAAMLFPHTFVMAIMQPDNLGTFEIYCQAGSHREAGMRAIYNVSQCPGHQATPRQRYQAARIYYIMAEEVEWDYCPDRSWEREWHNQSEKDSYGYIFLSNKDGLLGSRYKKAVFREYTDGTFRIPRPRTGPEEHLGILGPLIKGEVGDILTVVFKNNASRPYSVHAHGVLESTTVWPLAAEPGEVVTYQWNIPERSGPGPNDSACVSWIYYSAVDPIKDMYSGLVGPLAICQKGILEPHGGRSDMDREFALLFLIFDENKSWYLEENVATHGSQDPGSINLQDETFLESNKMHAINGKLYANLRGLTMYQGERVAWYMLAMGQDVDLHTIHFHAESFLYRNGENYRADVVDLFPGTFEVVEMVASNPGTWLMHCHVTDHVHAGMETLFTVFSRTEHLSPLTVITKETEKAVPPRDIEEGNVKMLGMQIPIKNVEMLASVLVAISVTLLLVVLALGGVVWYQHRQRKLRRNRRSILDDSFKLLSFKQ
UniProt P52657, whole entry, looked up: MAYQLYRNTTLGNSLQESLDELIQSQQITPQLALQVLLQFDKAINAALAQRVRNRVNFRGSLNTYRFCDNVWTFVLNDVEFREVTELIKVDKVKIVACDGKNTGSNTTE
UniProt P29084: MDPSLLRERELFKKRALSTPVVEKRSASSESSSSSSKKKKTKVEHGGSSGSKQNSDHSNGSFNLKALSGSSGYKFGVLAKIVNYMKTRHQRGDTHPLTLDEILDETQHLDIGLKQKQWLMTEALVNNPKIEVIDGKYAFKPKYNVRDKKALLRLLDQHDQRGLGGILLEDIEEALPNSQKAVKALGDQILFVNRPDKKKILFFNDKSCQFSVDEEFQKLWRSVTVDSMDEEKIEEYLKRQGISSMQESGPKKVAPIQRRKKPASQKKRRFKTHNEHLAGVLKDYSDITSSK
UniProt P16401, whole entry, looked up: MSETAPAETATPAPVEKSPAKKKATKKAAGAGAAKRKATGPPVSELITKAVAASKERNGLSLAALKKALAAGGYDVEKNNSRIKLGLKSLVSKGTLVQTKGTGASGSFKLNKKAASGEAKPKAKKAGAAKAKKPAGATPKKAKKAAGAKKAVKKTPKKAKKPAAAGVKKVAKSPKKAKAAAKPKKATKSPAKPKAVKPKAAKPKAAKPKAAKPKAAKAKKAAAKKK
UniProt P09211: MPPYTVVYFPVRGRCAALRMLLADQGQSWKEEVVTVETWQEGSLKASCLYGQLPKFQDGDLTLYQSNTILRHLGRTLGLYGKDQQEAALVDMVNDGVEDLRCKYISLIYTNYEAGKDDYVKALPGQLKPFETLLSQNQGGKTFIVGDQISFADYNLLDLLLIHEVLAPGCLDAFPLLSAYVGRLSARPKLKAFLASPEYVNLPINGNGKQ
UniProt Q9H583: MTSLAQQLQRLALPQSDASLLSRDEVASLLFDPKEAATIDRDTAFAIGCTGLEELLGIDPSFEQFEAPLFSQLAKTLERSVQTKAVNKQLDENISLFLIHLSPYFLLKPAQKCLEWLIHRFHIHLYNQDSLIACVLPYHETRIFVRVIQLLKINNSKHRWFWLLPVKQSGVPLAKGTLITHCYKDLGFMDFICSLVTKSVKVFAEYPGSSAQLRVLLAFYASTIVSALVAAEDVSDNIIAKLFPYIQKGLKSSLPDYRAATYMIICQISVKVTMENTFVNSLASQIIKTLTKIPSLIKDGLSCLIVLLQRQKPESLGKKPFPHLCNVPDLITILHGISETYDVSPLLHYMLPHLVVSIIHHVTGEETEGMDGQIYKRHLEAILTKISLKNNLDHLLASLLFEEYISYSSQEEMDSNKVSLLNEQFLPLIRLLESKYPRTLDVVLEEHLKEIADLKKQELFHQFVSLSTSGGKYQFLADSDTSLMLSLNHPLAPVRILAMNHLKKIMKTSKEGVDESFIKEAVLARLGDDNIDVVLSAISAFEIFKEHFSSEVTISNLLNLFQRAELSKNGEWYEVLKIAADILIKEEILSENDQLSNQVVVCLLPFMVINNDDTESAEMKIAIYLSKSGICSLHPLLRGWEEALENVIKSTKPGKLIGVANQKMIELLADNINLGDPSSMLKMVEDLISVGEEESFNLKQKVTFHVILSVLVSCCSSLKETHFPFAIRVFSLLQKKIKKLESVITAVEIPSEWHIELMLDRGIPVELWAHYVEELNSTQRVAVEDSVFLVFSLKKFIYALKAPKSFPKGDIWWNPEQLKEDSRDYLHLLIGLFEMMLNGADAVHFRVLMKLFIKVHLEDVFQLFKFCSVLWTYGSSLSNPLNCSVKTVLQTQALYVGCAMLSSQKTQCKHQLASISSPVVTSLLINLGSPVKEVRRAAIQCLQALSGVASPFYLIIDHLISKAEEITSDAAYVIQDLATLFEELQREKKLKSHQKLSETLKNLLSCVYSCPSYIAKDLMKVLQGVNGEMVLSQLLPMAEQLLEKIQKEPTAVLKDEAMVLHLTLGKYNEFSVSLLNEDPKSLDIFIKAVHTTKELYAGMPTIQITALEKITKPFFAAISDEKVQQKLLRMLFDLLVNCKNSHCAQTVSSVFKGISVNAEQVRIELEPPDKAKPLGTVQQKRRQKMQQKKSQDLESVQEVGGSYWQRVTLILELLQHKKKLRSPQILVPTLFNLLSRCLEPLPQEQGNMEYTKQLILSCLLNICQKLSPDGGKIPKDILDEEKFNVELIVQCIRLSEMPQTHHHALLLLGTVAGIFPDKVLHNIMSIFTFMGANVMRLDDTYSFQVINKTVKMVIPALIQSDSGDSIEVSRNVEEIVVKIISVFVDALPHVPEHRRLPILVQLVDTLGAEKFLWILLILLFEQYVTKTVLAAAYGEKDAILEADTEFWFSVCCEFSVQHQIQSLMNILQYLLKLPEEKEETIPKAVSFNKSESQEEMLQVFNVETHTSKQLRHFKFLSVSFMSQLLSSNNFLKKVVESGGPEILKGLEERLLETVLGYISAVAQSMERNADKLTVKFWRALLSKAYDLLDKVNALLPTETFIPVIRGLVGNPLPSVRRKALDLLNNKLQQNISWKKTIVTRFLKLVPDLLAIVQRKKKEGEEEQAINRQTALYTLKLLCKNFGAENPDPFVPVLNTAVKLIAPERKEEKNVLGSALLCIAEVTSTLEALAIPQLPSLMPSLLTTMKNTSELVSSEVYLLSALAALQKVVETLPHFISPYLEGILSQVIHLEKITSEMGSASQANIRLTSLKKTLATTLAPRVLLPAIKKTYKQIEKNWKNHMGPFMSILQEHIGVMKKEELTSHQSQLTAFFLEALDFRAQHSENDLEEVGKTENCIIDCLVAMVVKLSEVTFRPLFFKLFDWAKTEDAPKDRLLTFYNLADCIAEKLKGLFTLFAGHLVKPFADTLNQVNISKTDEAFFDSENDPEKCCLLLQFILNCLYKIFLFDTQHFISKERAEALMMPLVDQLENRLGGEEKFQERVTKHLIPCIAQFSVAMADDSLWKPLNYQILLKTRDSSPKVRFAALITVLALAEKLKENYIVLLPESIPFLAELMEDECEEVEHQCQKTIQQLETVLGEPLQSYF
UniProt Q92522: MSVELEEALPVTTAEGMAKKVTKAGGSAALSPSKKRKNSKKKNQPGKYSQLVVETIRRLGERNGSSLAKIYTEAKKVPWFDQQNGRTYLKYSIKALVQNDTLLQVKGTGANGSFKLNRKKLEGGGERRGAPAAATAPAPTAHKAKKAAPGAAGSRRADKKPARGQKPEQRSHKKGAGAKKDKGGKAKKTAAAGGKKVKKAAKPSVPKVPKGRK
UniProt P55084: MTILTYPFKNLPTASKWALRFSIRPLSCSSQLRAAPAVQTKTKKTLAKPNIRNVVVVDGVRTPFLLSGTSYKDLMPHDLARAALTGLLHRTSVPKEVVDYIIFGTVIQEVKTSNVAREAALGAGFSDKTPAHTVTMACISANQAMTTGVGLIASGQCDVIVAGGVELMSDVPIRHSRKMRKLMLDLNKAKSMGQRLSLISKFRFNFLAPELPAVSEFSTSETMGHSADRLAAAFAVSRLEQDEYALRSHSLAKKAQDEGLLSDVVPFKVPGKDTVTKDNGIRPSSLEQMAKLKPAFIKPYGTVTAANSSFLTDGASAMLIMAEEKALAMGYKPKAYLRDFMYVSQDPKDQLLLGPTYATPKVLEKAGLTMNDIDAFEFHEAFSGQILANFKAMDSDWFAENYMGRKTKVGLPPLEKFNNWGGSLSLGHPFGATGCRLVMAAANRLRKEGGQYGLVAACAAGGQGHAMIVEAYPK
UniProt O00165, whole entry, looked up: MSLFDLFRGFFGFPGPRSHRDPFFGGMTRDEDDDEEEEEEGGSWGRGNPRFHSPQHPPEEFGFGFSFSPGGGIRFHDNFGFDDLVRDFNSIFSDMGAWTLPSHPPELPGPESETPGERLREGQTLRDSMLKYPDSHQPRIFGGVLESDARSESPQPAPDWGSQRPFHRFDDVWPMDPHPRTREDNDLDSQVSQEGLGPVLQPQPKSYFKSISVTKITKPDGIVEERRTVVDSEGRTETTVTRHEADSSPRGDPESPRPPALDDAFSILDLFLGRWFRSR

Key:
Assay in all cases: log2 fold change, soluble protein after heating vs DMSO (PISA); higher = thermal stabilisation; K562 cells, 10 uM, 30 min; active = over 0.2 and 3.5 SD of the protein, either way, in both replicates (recomputed)
[1] = compound: CS(=O)(=O)c1ccc(-c2cnc(N)c(C(=O)Nc3ccccc3)n2)cc1
Method in brief: (§1)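 Aliquots of K562 cells (2×10^6 cells/mL) treated with 10 μM compound for 30 min were heated for 3 min over 48°C-58°C. After pooling and extraction in PBS with 0.5% NP-40 at 4°C, soluble protein from a 21,000xg, 90 min spin was quantified by TMTpro 16plex LC-MS/MS with channel sums equalised. Thermal stability is expressed against control samples, from duplicates, as a log2 fold change.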

crizotinib = compound: C[C@@H](Oc1cc(-c2cnn(C3CCNCC3)c2)cnc1N)c1c(Cl)ccc(F)c1Cl [crizotinib]
Method in brief: as §1

[2] = compound: C[C@@H]1COCCN1C2=NC(=NC(=C2)C3(CC3)S(=O)(=O)C)C4=C5C=CNC5=CC=C4
Method in brief: as §1

[3] = compound: C[C@H](C1=CC=C(C=C1)C(=O)NC2=C3C=CNC3=NC=C2)N
Method in brief: as §1

duvelisib = compound: C[C@H](Nc1ncnc2nc[nH]c12)c1cc2cccc(Cl)c2c(=O)n1-c1ccccc1 [duvelisib]
Method in brief: as §1

gandotinib = compound: Cc1cc(Nc2cc(CN3CCOCC3)c3nc(C)c(Cc4ccc(Cl)cc4F)n3n2)n[nH]1 [gandotinib]
Method in brief: as §1

tozasertib = compound: Cc1cc(Nc2cc(N3CCN(C)CC3)nc(Sc3ccc(NC(=O)C4CC4)cc3)n2)n[nH]1 [tozasertib]
Method in brief: as §1

[4] = compound: Cc1cc(SCc2sc(-c3ccc(C(F)(F)F)cc3)nc2C)ccc1OCC(=O)O
Method in brief: as §1

doramapimod = compound: Cc1ccc(-n2nc(C(C)(C)C)cc2NC(=O)Nc2ccc(OCCN3CCOCC3)c3ccccc23)cc1 [doramapimod]
Method in brief: as §1

ispinesib = compound: Cc1ccc(C(=O)N(CCCN)[C@@H](c2nc3cc(Cl)ccc3c(=O)n2Cc2ccccc2)C(C)C)cc1 [ispinesib]
Method in brief: as §1

Measured: log2 fold change

HARS (UniProt P12081)
inactive: [1] -0.008 | crizotinib 0.049 | [2] -0.001 | [3] -0.036 | duvelisib 0.021 | gandotinib -0.012 | tozasertib -0.024 | [4] -0.049 | doramapimod -0.018 | ispinesib 0.012

HEATR6 (UniProt Q6AI08)
inactive: [1] -0.044 | crizotinib 0.002 | [2] 0.05 | [3] 0.038 | duvelisib -0.03 | tozasertib 0.012 | [4] -0.042 | doramapimod -0.043 | ispinesib -0.065

HCLS1 (UniProt P14317)
inactive: [1] 0.015 | crizotinib 0 | [2] 0.04 | [3] -0.032 | duvelisib 0.025 | gandotinib 0.002 | tozasertib -0.02 | [4] -0.049 | doramapimod -0.003 | ispinesib -0.028

GYPC (UniProt P04921)
inactive: [1] 0.005 | crizotinib 0.189 | [2] 0.09 | [3] 0.244 | duvelisib 0.126 | gandotinib -0.028 | tozasertib 0.055 | [4] -0.059 | doramapimod -0.034 | ispinesib 0.177

HAGHL (UniProt Q6PII5)
inactive: [1] -0.103 | crizotinib -0.124 | [2] 0.07 | [3] 0.021 | duvelisib 0.028 | tozasertib 0.054 | [4] 0.078 | doramapimod 0.073 | ispinesib -0.014

HELQ (UniProt Q8TDG4)
inactive: [1] -0.112 | crizotinib -0.003 | [2] -0.065 | [3] 0.077 | duvelisib 0.105 | gandotinib -0.003 | tozasertib -0.116 | [4] -0.071 | doramapimod 0.007 | ispinesib 0.033

HEPH isoform 3 (UniProt Q9BQS7)
inactive: [1] 0.018 | crizotinib -0.022 | [2] -0.085 | [3] 0.118 | duvelisib -0.035 | gandotinib -0.003 | tozasertib -0.002 | [4] 0.053 | doramapimod 0.052 | ispinesib -0.043

HAT1 (UniProt O14929)
inactive: [1] -0.011 | crizotinib 0.013 | [2] 0.007 | [3] -0.225 | gandotinib 0.019 | [4] 0.033 | doramapimod -0.04 | ispinesib 0.135

GTF2A2 (UniProt P52657)
inactive: [1] 0.022 | crizotinib 0.11 | [2] 0.102 | [3] 0.015 | gandotinib -0.005 | [4] -0.076 | doramapimod -0.034 | ispinesib 0.023

HEXIM1 (UniProt O94992)
inactive: [1] -0.003 | crizotinib 0.024 | [2] -0.018 | [3] 0.061 | duvelisib 0.063 | gandotinib 0.167 | tozasertib 0.044 | [4] -0.001 | doramapimod 0.014 | ispinesib -0.02

GSPT1 isoform 3 (UniProt P15170)
inactive: [1] 0.082 | crizotinib -0.008 | [2] 0.083 | [3] -0.049 | duvelisib 0.046 | gandotinib -0.074 | tozasertib -0.01 | [4] -0.005 | doramapimod 0.014 | ispinesib 0.074

GTF2E2 (UniProt P29084)
inactive: [1] 0.037 | crizotinib 0.012 | [2] -0.029 | [3] -0.002 | gandotinib -0.03 | [4] 0.071 | doramapimod -0.025 | ispinesib -0.01

GTF3C4 (UniProt Q9UKN8)
inactive: [1] -0.011 | crizotinib 0.078 | [2] 0.04 | [3] -0.015 | gandotinib -0.05 | [4] -0.063 | doramapimod -0.019 | ispinesib 0.06

8 successive records out of the list so far, for reference:
HAGHL (UniProt Q6PII5)
inactive: [1] -0.103 | crizotinib -0.124 | [2] 0.07 | [3] 0.021 | duvelisib 0.028 | tozasertib 0.054 | [4] 0.078 | doramapimod 0.073 | ispinesib -0.014

HELQ (UniProt Q8TDG4)
inactive: [1] -0.112 | crizotinib -0.003 | [2] -0.065 | [3] 0.077 | duvelisib 0.105 | gandotinib -0.003 | tozasertib -0.116 | [4] -0.071 | doramapimod 0.007 | ispinesib 0.033

HEPH isoform 3 (UniProt Q9BQS7)
inactive: [1] 0.018 | crizotinib -0.022 | [2] -0.085 | [3] 0.118 | duvelisib -0.035 | gandotinib -0.003 | tozasertib -0.002 | [4] 0.053 | doramapimod 0.052 | ispinesib -0.043

HAT1 (UniProt O14929)
inactive: [1] -0.011 | crizotinib 0.013 | [2] 0.007 | [3] -0.225 | gandotinib 0.019 | [4] 0.033 | doramapimod -0.04 | ispinesib 0.135

GTF2A2 (UniProt P52657)
inactive: [1] 0.022 | crizotinib 0.11 | [2] 0.102 | [3] 0.015 | gandotinib -0.005 | [4] -0.076 | doramapimod -0.034 | ispinesib 0.023

HEXIM1 (UniProt O94992)
inactive: [1] -0.003 | crizotinib 0.024 | [2] -0.018 | [3] 0.061 | duvelisib 0.063 | gandotinib 0.167 | tozasertib 0.044 | [4] -0.001 | doramapimod 0.014 | ispinesib -0.02

GSPT1 isoform 3 (UniProt P15170)
inactive: [1] 0.082 | crizotinib -0.008 | [2] 0.083 | [3] -0.049 | duvelisib 0.046 | gandotinib -0.074 | tozasertib -0.01 | [4] -0.005 | doramapimod 0.014 | ispinesib 0.074

GTF2E2 (UniProt P29084)
inactive: [1] 0.037 | crizotinib 0.012 | [2] -0.029 | [3] -0.002 | gandotinib -0.03 | [4] 0.071 | doramapimod -0.025 | ispinesib -0.01

(list continues)

HAGHL isoform 2 (UniProt Q6PII5)
inactive: [1] -0.117 | crizotinib -0.075 | [2] -0.004 | [3] 0.012 | duvelisib 0.115 | [4] -0.076 | doramapimod -0.009 | ispinesib 0.137

HBS1L (UniProt Q9Y450)
inactive: [1] 0.066 | crizotinib -0.074 | [2] -0.007 | [3] -0.029 | duvelisib 0.009 | gandotinib -0.038 | tozasertib -0.011 | [4] 0.014 | doramapimod -0.017 | ispinesib 0.007

H1-5 (UniProt P16401)
inactive: [1] 0.013 | crizotinib 0.068 | [2] -0.521 | [3] 0.355 | duvelisib -0.179 | gandotinib 0.26 | tozasertib -0.048 | [4] 0.012 | doramapimod 0.226 | ispinesib -0.15

HEXA (UniProt P06865)
active: crizotinib -0.785
inactive: [1] 0.016 | [2] 0.02 | [3] -0.015 | gandotinib 0.015 | [4] -0.02 | doramapimod -0.016 | ispinesib -0.124

HDAC1 (UniProt Q13547)
inactive: [1] 0.011 | crizotinib 0.084 | [2] 0.001 | [3] 0.115 | gandotinib -0.02 | [4] 0.06 | doramapimod -0.018 | ispinesib 0.038

GSTP1 (UniProt P09211)
inactive: [1] 0.023 | crizotinib 0.038 | [2] 0.033 | [3] -0.067 | gandotinib -0.005 | [4] 0 | doramapimod -0.019 | ispinesib 0.058

HEATR1 (UniProt Q9H583)
inactive: [1] 0.007 | crizotinib -0.055 | [2] 0.042 | duvelisib -0.009 | gandotinib -0.128 | tozasertib -0.139 | [4] -0.037 | doramapimod 0.092 | ispinesib -0.257

HDAC6 (UniProt Q9UBN7)
inactive: [1] -0.019 | crizotinib -0.057 | [2] -0.007 | [3] 0.066 | gandotinib 0.079 | [4] 0.062 | doramapimod 0.015 | ispinesib -0.027

HGD (UniProt Q93099)
inactive: [1] 0.074 | [2] 0.015

H1FX (UniProt Q92522)
inactive: [1] -0.175 | crizotinib 0.091 | [2] -0.524 | [3] 0.432 | gandotinib 0.13 | [4] 0.021 | doramapimod 0.188 | ispinesib -0.016

HADHB (UniProt P55084)
inactive: [1] -0.087 | crizotinib 0.109 | [2] 0.099 | [3] -0.023 | gandotinib 0.083 | [4] 0.138 | doramapimod 0.167 | ispinesib 0.199

HAX1 (UniProt O00165)
inactive: [1] 0.02 | crizotinib -0.235 | [2] -0.043 | [3] 0.16 | gandotinib -0.174 | [4] 0.014 | doramapimod 0.035
active: ispinesib -0.59

HADHA (UniProt P40939)
inactive: [1] -0.058 | crizotinib 0.079 | [2] 0.068 | [3] -0.017 | gandotinib 0.086 | [4] 0.154 | doramapimod 0.176 | ispinesib 0.171

HDDC2 (UniProt Q7Z4H3)
inactive: [1] 0.044 | crizotinib -0.058 | [2] 0.106 | [3] -0.103 | gandotinib 0.032 | [4] 0.024 | doramapimod 0.031 | ispinesib 0.228
